This note sets out measurements from PubChem BioAssay AID493014 (National Center for Advancing Translational Sciences (NCATS), 2011).

A short description of this assay: qHTS Assay to Find Inhibitors of Chronic Active B-Cell Receptor Signaling. Particulars: ABC-DLBCL IkBa-CBG/CBR reporter, luminescence ratio (green luciferase fused to IkBa over red control in TMD8 lymphoma cells), 4 h. Put shortly: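 Compounds up to 46 uM were incubated four hours with TMD8 cells whose green CBG68 luciferase is fused to IkappaBalpha; red CBR luminescence normalised the signal, and concentration-effect curves were fitted to fusion, red and ratio data.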
(In general: qHTS replaces the single test concentration by a dilution series.)

Setting [1] is: measured here: CBR red luminescence, cell number.
Where [2] appears, read: measured here: IkBa-CBG green luminescence.

Structures are written as SMILES. The list shows a part of the results. Further columns of the screen follow, without active or inactive calls. Compounds called inactive in the main read-out are mostly missing here. Words in brackets tell the shape of the fitted curve; partial curves, single points and poor fits give uncertain potencies.

For orientation: AC50 means the midpoint of the concentration-response curve, whichever way the signal moves.

On to `Cc1cccnc1NC(=O)Cn1nc(-c2ccccc2)oc1=S`, for which the concentration at half-maximal activity (AC50) under setting [1] was 13 µM [falling, partial curve]. The same measure, in the same setting: to `COc1cccc(C(=O)N/N=C(/CCC(=O)O)c2ccccc2)c1` belongs 1.84 µM [falling, full curve]; to `COC(=O)Cn1cnc2c(nnn2-c2ccc(C)cc2)c1=O`, 4.11 µM [falling, single point]. Same read-out and setting: then `CS(=O)(=O)c1cccc(C(=O)Nc2ccc3c(c2)OCCCO3)c1`, with 35.5 µM [falling, single point]; and `COc1ccc(Br)cc1/C=N/NC(=O)c1cc(Br)ccc1O`, with 1.41 µM [falling, full curve, poor fit]. On the same count and under the same terms, to `Cc1ccc(NC(=O)CN2C(=O)NC3(CCCc4ccccc43)C2=O)cc1S(=O)(=O)N1CCOCC1` (configuration not stated) belongs 12.6 µM [falling, single point]; to `COc1ccccc1-c1cn(S(=O)(=O)c2ccc(F)cc2)nc1N`, 11.2 µM [falling, partial curve]. Consider `COc1ccc(/C=C2\SC(=S)N(CCCC(=O)Nc3ccc(C(=O)O)cc3)C2=O)cc1OC`, for which, under setting [1], the concentration at half-maximal activity (AC50) was 1.58 µM [falling, full curve, poor fit]. The same measure, in the same setting: then `Nc1nc(-c2ccc([N+](=O)[O-])cc2)c(C(=O)Nc2ccc(Cl)cc2)s1`, with 5.62 µM [rising, single point]; and `COCCCNC(=O)c1cc2c(-c3cccc(OC)c3)nn(C)c2s1`, with 15.8 µM [falling, single point]; and `CCOc1ncccc1C(=O)Nc1ccc(C)cn1`, with 15.8 µM [rising, partial curve, poor fit]. On the same count and under the same terms, to `CCOC(=O)c1c(C)[nH]c(C(=O)COC(=O)/C=C/c2cccc(OC)c2OC)c1C` belongs 0.326 µM [rising, full curve]. As for `CC(C)[C@@H](C(=O)NC1CCN(Cc2ccccc2)CC1)N1C(=O)N2CCc3c([nH]c4ccccc34)[C@@]2(C)C1=O`, the AC50 runs as follows: under setting [1], 14.1 µM [falling, partial curve, poor fit]; under setting [2], 14.1 µM [rising, partial curve, poor fit].

`Oc1ccccc1-c1cc(-c2ccco2)[nH]n1`: the half-maximal activity concentration (AC50) under setting [1] was 5.17 µM [falling, full curve, poor fit]. The same measure, in the same setting: to `Cc1ccc(C(=O)NC(C)CCc2ccccc2)cc1[N+](=O)[O-]` (configuration not stated) belongs 3.55 µM [rising, partial curve, poor fit]; to `COC(=O)CSc1nnc(COc2ccc3ccccc3c2)o1`, 15.8 µM [falling, single point]; to `CC(=O)Nc1ccc(C(=O)N(C)C(C(=O)Nc2ccccc2)c2ccccn2)cc1` (configuration not stated), 18.4 µM [rising, single point].

Take `COc1cccc(C(=O)Nc2nc3ccccc3s2)c1`: the half-maximal activity concentration (AC50) under setting [1] was 3.98 µM [falling, full curve]. Still for that read-out and setting: then `CCOc1ccc(C(=O)O/N=C(\N)c2ccccn2)cc1OCC`, with 6.31 µM [falling, partial curve]; and `Cc1ccc(C(=O)c2oc3ccccc3c2NC(=O)c2cc(-c3cc(C)ccc3O)n[nH]2)cc1`, with 3.16 µM [rising, single point]. In the case of `Cn1cc(CNC(=O)C2c3ccccc3Oc3ccccc32)cn1`, the concentration at half-maximal activity (AC50) under setting [1] was 6.31 µM [falling, single point]. Same read-out and setting: then `Cc1oc(/C=N/NC(=O)CN(c2ccccc2Br)S(C)(=O)=O)cc1Br`, with 1.26 µM [falling, full curve, poor fit]. On to `C/C(=N\Nc1ncc(Cl)cc1Cl)c1cccs1`, for which the AC50 is, setting by setting: under setting [1], 14.1 µM [falling, partial curve]; under setting [2], 25.1 µM [falling, single point].

As to `CCOC(=O)/C=c1\s/c(=C(\C#N)C(=O)NC)n(-c2ccccc2)c1=O`, the half-maximal activity concentration (AC50) under setting [1] was 6.31 µM [falling, single point]. Same read-out and setting: to `COC(=O)Cc1csc(Nc2ccc(F)c(Cl)c2)n1` belongs 0.891 µM [rising, partial curve, poor fit]; to `COc1cc2c(cc1OC)[C@@H](NC(=O)Cc1ccc(F)cc1)[C@H](OCc1ccccc1)C2`, 2.91 µM [rising, partial curve, poor fit]; to `C=CCn1c(SCc2cc(C(=O)OC)c(C)o2)nnc1-c1ccncc1`, 35.5 µM [falling, partial curve, poor fit]. On to `Cc1nc(C(=O)NC(C)C)nn1-c1cc(Cl)cc(Cl)c1`, for which the AC50 under setting [1] is 2.51 µM [rising, partial curve, poor fit]. `COc1ccc(NC2=C(Cl)C(=O)N(c3ccccc3)C2=O)c(OC)c1`: under setting [1], the AC50 was 10 µM [falling, partial curve]. Still for that read-out and setting: then `C=CCN1C=C2C(=O)C(C)(OC(=O)CCc3ccccc3)C(=O)C=C2C=C1c1ccc(C#N)cc1` (configuration not stated), with 8.91 µM [rising, partial curve]; and `Clc1ccc(-n2ncc3c(N4CCCC4)ncnc32)cc1`, with 0.731 µM [rising, full curve]. On the same count and under the same terms, then `Cc1cc(O)c(C(C)C)cc1NC(=O)c1ccccc1Cl`, with 20.6 µM [rising, partial curve, poor fit]; and `COC(=O)C1=C(C)N(c2ccc(OC)c(OC)c2)C(=O)C1`, with 7.08 µM [falling, partial curve]; and `Cc1c(NC(=O)c2c(NC(=O)CNC3CC3)sc3c2CCCC3)c(=O)n(-c2ccccc2)n1C`, with 29.1 µM [falling, single point]. On the same count and under the same terms, then `Clc1ccccc1OCCn1cnc2ccccc21`, with 5.01 µM [rising, full curve, poor fit]; and `CCC(=O)NCCn1c(C)cc2ccccc21`, with 20.6 µM [rising, partial curve, poor fit]. For the molecule `O=C(N1CCN(c2ccccn2)CC1)N1c2ccccc2Sc2ccccc21`, the half-maximal activity concentration (AC50) under setting [1] was 25.9 µM [rising, single point] and the half-maximal activity concentration (AC50) under setting [2] is 6.51 µM [falling, partial curve, poor fit]. Regarding `Cc1nc(Nc2cccc(F)c2)c2oc3ccccc3c2n1`, the AC50 under setting [1] was 5.01 µM [falling, partial curve, poor fit]. Same read-out and setting: to `COc1ccc([C@]23Cc4cc(OC)c(OC)cc4C(O2)c2c(cc(C)n(Cc4ccccc4)c2=O)O3)cc1` belongs 6.31 µM [rising, single point]; to `Cc1ccc(C(=O)Nc2ccc3ccccc3c2)cc1`, 20 µM [falling, single point]; to `O=C(CCc1nc2ccccc2s1)OCC(=O)c1ccccc1`, 7.31 µM [rising, partial curve]. `COc1cccc(/C=N/Nc2snc(SC)c2C#N)c1O`: the half-maximal activity concentration (AC50) under setting [1] is 9.2 µM [falling, partial curve].

For `Cc1cc(-n2c(C)cc(C(=O)CSc3[nH]c(=O)cc(C(F)(F)F)c3C#N)c2C)no1`, the AC50 under setting [1] was 29.1 µM [falling, single point].

In the case of `COc1ccc(C(=O)NCc2ccc3c(c2)CCN3C(C)=O)c(OC)c1`, the concentration at half-maximal activity (AC50) under setting [1] was 6.31 µM [falling, single point].

For the molecule `COc1ccc(CN2CCCCC2C(=O)Nc2ccc(OC)c(OC)c2)cc1OC` (configuration not stated), the AC50 under setting [1] is 20 µM [rising, partial curve, poor fit]. Same read-out and setting: then `CSCCC(=O)N1CCCC(CNC(=O)c2ccccc2Cl)C1` (configuration not stated), with 35.5 µM [falling, single point]; and `NC(=O)N/N=C/c1ccc2cccc(OCc3ccccc3)c2n1`, with 15.8 µM [falling, partial curve, poor fit]; and `Cc1cccc(C(=O)NC(=S)Nc2ccc(Cc3ccncc3)cc2)c1`, with 10 µM [falling, partial curve].

Regarding `CCN(Cc1ccccc1)c1ncnc2c1cnn2-c1ccc(F)cc1`, the AC50 under setting [1] was 12.6 µM [rising, partial curve, poor fit]. On the same count and under the same terms, then `COc1ccccc1-c1nnc(NC(=O)c2ccc3ncsc3c2)o1`, with 2.59 µM [falling, full curve]; and `CCCC12CN3CCN(CC(C3)/C1=N\NC(=O)c1ccccc1N)C2`, with 20.6 µM [falling, partial curve]. On the same count and under the same terms, to `COc1cccc(Nc2nc(-c3ccccc3)nc3ccccc23)c1` belongs 35.5 µM [falling, single point]; to `Cc1ccc(OCC(O)Cn2c(N)nc3c2c(=O)n(C)c(=O)n3C)cc1` (configuration not stated), 2.82 µM [rising, partial curve, poor fit]; to `O=C(N/N=C\c1cccnc1)c1ccc(Cl)s1`, 0.891 µM [rising, partial curve, poor fit].

On to `COCCNC(=O)CSc1nc2ccccc2c(=O)n1CCC(=O)NCCc1ccc(OC)c(OC)c1`, for which the concentration at half-maximal activity (AC50) under setting [1] was 12.6 µM [rising, partial curve, poor fit].

Turning to `N/C(=N\OC(=O)c1ccc([N+](=O)[O-])cc1)c1cccnc1`, under setting [1], the concentration at half-maximal activity (AC50) was 0.651 µM [rising, full curve, poor fit].

With `O=Cc1c(N2CCN(c3ccccc3)CC2)nc2ccccn2c1=O`, the AC50 by setting is: under setting [1], 7.94 µM [rising, partial curve, poor fit]; under setting [2], 12.6 µM [falling, partial curve, poor fit]. With `COc1cccc(-c2sc3cc(OC)c(OC)cc3c2-c2ccc(OCCN3CCCCC3)cc2)c1`, the concentration at half-maximal activity (AC50) under setting [2] is 23.1 µM [falling, partial curve, poor fit]. Turning to `CCOc1ccccc1C1C(C(=O)Nc2ccccc2)=C(C)Nc2nc(SCC(=O)c3ccc(C)cc3)nn21` (configuration not stated), the concentration at half-maximal activity (AC50) under setting [1] is 2.82 µM [falling, single point]. The same measure, in the same setting: then `O=C1c2ccccc2NC(c2ccccc2O)N1O` (configuration not stated), with 6.31 µM [rising, single point]; and `CCCCNC(=O)c1nnn(-c2ccccc2)c1N`, with 11.6 µM [falling, partial curve]; and `Cc1cc(C)n2nc(S(=O)(=O)NCCc3ccccc3)nc2n1`, with 4.61 µM [rising, single point]. The same measure, in the same setting: then `Cc1onc(-c2ccccc2Cl)c1C(=O)OCn1nnc2ccccc2c1=O`, with 10.3 µM [falling, partial curve, poor fit].
